# Test results from PubChem BioAssay AID624297 (National Center for Advancing Translational Sciences (NCATS), 2012).
# Out of some 340,000 compounds screened, about 6,200 (1.8%) were called active. This list was built around the results that the source calls inconclusive (neither active nor inactive); the mix of calls is not that of the screen. The call rests on the fitted dose curve; in most records, active means well fitted activation curve with a large enough effect; inconclusive means small, poorly fitted or top-dose-only effect; inactive means no such curve, though single readings can be large or run the other way. Where the call is inconclusive, the potency comes from a doubtful curve fit.
# Assay: A quantitative high throughput screen for small molecules that induce DNA re-replication in SW480 colon adenocarcinoma cells. Further: nearly all actives have a fitted effect of over 55% in size.
# Details: Hoechst DNA content imaging, 48 h; series mostly up to 46.1 µM
# Outline: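 Treated cells incubate 48 hr (37 C, 5% CO2), are stained 40 min with Hoechst, and nuclear fluorescence is enumerated; a rise in nuclei with high DNA signal marks re-replication.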
# Potency means the concentration at half of the fitted maximal effect.
row,SMILES,Potency
1,CC(=O)Nc1ccc(C(=O)N/C(=C/c2ccccc2)C(=O)Nc2cccc(C(=O)O)c2)cc1,"inconclusive: 29.1 µM [activator, single point]"
2,CCOC(=O)N1CCN(C2=C(NS(=O)(=O)c3ccc(NC(C)=O)cc3)C(=O)c3ccccc3C2=O)CC1,"inconclusive: 1.84 µM [activator, partial curve, poor fit]"
3,Cc1ccc(CNC(=O)C2CC(c3ccccc3C(F)(F)F)=NO2)cc1 (centres undefined),"inconclusive: 0.184 µM [activator, full curve, poor fit]"
4,Cc1ccc2oc(=O)c3cc(C(=O)NCCCN4CCc5ccccc5C4)sc3c2c1,inactive
5,CC1CCC2(CC1)NC(=O)N(CC(=O)N1CCN(C(=O)c3ccco3)CC1)C2=O (centres undefined),inactive
6,CC1(C)CC(=O)c2cc(OCC(=O)NCCCN3CCN(c4ccc(F)cc4)CC3)ccc2O1,"inconclusive: 20.6 µM [activator, single point]"
7,O=c1[nH]cnc(O)c1N=Nc1ccccc1,"inconclusive: 29.1 µM [activator, single point]"
8,CCN(C(=O)COC(=O)Cn1c(C)csc1=O)c1c(N)n(Cc2ccccc2)c(=O)[nH]c1=O,inactive
9,CC(C)c1ccc(OCC(O)CN2CCN(c3ccccc3)CC2)cc1 (centres undefined),"inconclusive: 20.6 µM [activator, partial curve, poor fit]"
10,CCOC(=O)c1c(-c2ccc(C)o2)csc1NC(=O)CSc1nncs1,inactive
11,CC(C)(C)c1ccc(CN(Cc2ccco2)Cc2nnnn2C2CCCC2)cc1,inactive
12,CC(=NNC(=O)c1cc(C)nc2ccccc12)c1ccc(N2CCOCC2)cc1,inactive
13,CCC(C)(C)NC(=O)C(c1ccc(C)cc1)N(CC1CCCO1)C(=O)c1csnn1 (centres undefined),inactive
14,Cc1ccc2[nH]c(C)c(/C=C/c3cc[n+](C)cc3)c2c1,"inconclusive: 14.6 µM [activator, single point]"
15,COc1ccc(CC(=O)NNS(=O)(=O)c2cccc([N+](=O)[O-])c2)cc1OC,"inconclusive: 5.8 µM [activator, partial curve, poor fit]"
16,O=C(NCCN1CCN(c2ccccc2Cl)CC1)Nc1ccccc1,"inconclusive: 0.82 µM [activator, full curve]"
17,O=C(NCCc1cccnc1)c1cc(COc2ccc(F)cc2F)on1,inactive
18,CC1CC(C)CN(CCOCCSc2ccccc2)C1 (centres undefined),inactive
19,CCO[C@H]1OC(C(=O)NC2CC2)=C[C@@H](c2ccc(C(F)(F)F)cc2)[C@@H]1CCCO,"inconclusive: 2.31 µM [activator, partial curve, poor fit]"
20,COc1ccc(C(=O)NC(=S)NNC(=O)[C@H]2C[C@@H]2c2ccccc2)cc1OC,"inconclusive: 29.1 µM [activator, single point]"
21,COc1ccc(C(=O)NC2CCCc3ccccc32)cc1[N+](=O)[O-] (centres undefined),"inconclusive: 20.6 µM [activator, single point]"
22,C/C(=N\NC(=S)NCc1ccccc1)c1ccccc1,inactive

# Structural class: the entries above with sulfur.
row,SMILES,Potency
2,CCOC(=O)N1CCN(C2=C(NS(=O)(=O)c3ccc(NC(C)=O)cc3)C(=O)c3ccccc3C2=O)CC1,"inconclusive: 1.84 µM [activator, partial curve, poor fit]"
4,Cc1ccc2oc(=O)c3cc(C(=O)NCCCN4CCc5ccccc5C4)sc3c2c1,inactive
8,CCN(C(=O)COC(=O)Cn1c(C)csc1=O)c1c(N)n(Cc2ccccc2)c(=O)[nH]c1=O,inactive
10,CCOC(=O)c1c(-c2ccc(C)o2)csc1NC(=O)CSc1nncs1,inactive
13,CCC(C)(C)NC(=O)C(c1ccc(C)cc1)N(CC1CCCO1)C(=O)c1csnn1 (centres undefined),inactive
15,COc1ccc(CC(=O)NNS(=O)(=O)c2cccc([N+](=O)[O-])c2)cc1OC,"inconclusive: 5.8 µM [activator, partial curve, poor fit]"
18,CC1CC(C)CN(CCOCCSc2ccccc2)C1 (centres undefined),inactive
20,COc1ccc(C(=O)NC(=S)NNC(=O)[C@H]2C[C@@H]2c2ccccc2)cc1OC,"inconclusive: 29.1 µM [activator, single point]"
22,C/C(=N\NC(=S)NCc1ccccc1)c1ccccc1,inactive

# (next part)

row,SMILES,Potency
1,Cc1cc(C(=O)O)ccc1-n1c(C)cc(C=C2C(=O)c3ccccc3C2=O)c1C,"inconclusive: 1.3 µM [activator, partial curve, poor fit]"
2,COc1cccc(NC(=O)CCCCCn2nnc3ccccc3c2=O)c1,"inconclusive: 20.6 µM [activator, single point]"
3,COc1ccc(S(=O)(=O)Nc2cccc3c2O[C@H](CN(C)S(=O)(=O)c2ccccc2)[C@@H](C)CN([C@H](C)CO)C3=O)cc1,active: 0.82 µM
4,NC(=S)NNC(=O)c1ccccc1,"inconclusive: 20.6 µM [activator, single point]"
5,CCOc1ccc(OCC)c(NC(=O)CN2CCN(c3cccc(C)c3)CC2)c1,"inconclusive: 29.1 µM [activator, single point]"
6,Clc1ccc(CNc2ccc(CNc3ncn[nH]3)cc2)c(Cl)c1,"inconclusive: 11.6 µM [activator, single point]"
7,Cc1nc2c(C(=O)N3CCN(c4ccccn4)CC3)cnn2c(C)c1Cc1cccc(Cl)c1,inactive
8,S=C(NCc1ccccc1)NCc1cccc(CNC(=S)NCc2ccccc2)c1,inactive
9,CCN(CC(=O)Nc1ccccc1OC)CC(=O)Nc1ccccc1C(F)(F)F,"inconclusive: 18.4 µM [activator, single point]"
10,O=C(NCC1CCCO1)Nc1cccc(Cl)c1 (centres undefined),inactive
11,CCN(CC)S(=O)(=O)c1ccc(OC(C)C)c(NC(=O)C2=COCCO2)c1,inactive
12,Cn1c(SCc2cc(=O)[nH]c(C(C)(C)C)n2)nnc1C(F)(F)F,"inconclusive: 29.1 µM [activator, single point]"
13,COc1ccc(N2CCN(C(=O)c3ccc(CNS(=O)(=O)c4cccc(OC)c4)cc3)CC2)cc1,"inconclusive: 29.1 µM [activator, single point]"
14,CC1CCCCN1CCCNC(=O)c1ccc2c(=O)n(CCc3ccccc3)c(=O)[nH]c2c1 (centres undefined),"inconclusive: 23.1 µM [activator, single point]"
15,O=C(N/N=C/c1ccccn1)c1c[nH]c2ccccc12,inactive
16,Cc1cc2oc(C(=O)Nc3nonc3C)c(C)c2cc1C,inactive
17,COc1ccc(NC(=O)CCCN2C(=O)C(c3ccccc3)Oc3cccnc32)c(OC)c1 (centres undefined),inactive
18,O=C(Cc1cccs1)N/N=C/C=C/c1ccccc1[N+](=O)[O-],"inconclusive: 2.91 µM [activator, single point]"
19,CN(C)C(=O)CSc1nc2ccc(C(=O)c3ccccc3)cc2[nH]1,"inconclusive: 29.1 µM [activator, partial curve, poor fit]"
20,COc1ccc(/C=N/NC(=O)c2cccc(Br)c2)cc1CSc1ccccn1,"inconclusive: 29.1 µM [activator, single point]"
21,CC(=O)Nc1ccc(C(=O)NN2C(=O)NC3(CCCCC3)C2=O)cc1,"inconclusive: 29.1 µM [activator, partial curve, poor fit]"
22,C=CCN(CC=C)C(=O)COC(=O)c1ccc(Sc2ncn[nH]2)c([N+](=O)[O-])c1,"inconclusive: 6.51 µM [activator, single point]"
